The source of these data is paper PMC6089883.

The chains behind the UniProt entries cited, without tags or fusion partners.
UniProt Q59U81: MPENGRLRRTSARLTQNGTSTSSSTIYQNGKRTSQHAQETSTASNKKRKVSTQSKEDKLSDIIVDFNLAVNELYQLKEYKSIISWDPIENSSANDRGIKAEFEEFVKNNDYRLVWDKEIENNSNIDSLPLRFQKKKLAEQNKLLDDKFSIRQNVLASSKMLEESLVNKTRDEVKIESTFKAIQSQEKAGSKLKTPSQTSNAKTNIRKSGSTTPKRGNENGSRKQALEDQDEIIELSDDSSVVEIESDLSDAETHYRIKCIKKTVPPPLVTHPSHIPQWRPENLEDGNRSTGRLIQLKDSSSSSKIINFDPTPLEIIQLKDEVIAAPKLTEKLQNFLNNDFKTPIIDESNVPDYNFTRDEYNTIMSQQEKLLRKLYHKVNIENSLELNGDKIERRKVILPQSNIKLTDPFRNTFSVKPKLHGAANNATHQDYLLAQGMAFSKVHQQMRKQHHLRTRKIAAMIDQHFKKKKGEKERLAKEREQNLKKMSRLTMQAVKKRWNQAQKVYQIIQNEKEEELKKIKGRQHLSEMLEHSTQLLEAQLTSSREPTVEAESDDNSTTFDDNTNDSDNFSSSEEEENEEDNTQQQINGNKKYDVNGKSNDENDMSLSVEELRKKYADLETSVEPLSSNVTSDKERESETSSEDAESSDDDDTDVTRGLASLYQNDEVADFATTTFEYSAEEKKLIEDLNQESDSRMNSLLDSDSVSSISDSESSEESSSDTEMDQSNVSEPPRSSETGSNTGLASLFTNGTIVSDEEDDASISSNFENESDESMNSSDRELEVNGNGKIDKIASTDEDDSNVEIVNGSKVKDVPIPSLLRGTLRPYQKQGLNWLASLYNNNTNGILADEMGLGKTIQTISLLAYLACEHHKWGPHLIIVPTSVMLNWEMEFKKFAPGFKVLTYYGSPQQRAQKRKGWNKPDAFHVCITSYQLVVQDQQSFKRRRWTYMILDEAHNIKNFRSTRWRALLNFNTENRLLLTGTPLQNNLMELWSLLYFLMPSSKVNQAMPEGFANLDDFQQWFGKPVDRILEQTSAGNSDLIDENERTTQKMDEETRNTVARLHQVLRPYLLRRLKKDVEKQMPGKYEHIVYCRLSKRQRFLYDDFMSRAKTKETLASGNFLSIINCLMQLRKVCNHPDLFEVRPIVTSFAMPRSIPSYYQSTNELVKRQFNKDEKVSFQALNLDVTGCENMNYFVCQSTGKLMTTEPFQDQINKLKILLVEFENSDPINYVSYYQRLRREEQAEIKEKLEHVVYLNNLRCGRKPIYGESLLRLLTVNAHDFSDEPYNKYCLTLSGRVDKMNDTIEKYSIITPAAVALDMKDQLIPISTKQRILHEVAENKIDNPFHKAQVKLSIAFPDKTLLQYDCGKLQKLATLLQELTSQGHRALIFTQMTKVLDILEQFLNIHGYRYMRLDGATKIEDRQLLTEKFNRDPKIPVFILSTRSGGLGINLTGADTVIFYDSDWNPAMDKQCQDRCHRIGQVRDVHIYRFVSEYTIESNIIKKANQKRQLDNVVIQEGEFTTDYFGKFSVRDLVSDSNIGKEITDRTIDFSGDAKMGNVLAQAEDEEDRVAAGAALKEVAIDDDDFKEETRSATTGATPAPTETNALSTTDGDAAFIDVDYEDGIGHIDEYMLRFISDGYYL

These are yes or no findings as the source states them, for the method shown. Binding seen in cells or lysates may run through a third protein. Some entries that bind do so weakly or less than the wild type. Tags and fused reporters may be left off the sequences shown.

In test [1] the target is T1, Yaf9-Myc (C. albicans) (UniProt Q59LC9).
T1 sequence: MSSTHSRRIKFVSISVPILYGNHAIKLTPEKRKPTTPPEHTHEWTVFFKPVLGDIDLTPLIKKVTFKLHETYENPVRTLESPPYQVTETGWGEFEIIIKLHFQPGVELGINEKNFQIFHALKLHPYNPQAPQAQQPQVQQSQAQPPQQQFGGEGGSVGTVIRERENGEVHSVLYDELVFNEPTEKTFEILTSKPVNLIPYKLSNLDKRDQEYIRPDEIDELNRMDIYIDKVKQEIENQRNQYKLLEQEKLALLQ
Description: co-IP; whole-cell extracts of C. albicans carrying Myc- and HA-tagged proteins; yeast state (YPD, 25 °C), also time courses of yeast-to-hypha and hypha-to-yeast transition and deletion mutants eaf7, yng2, bdf1; anti-Myc or anti-HA antibody on protein A-Sepharose, 4 °C, 4 h; 50 mM HEPES pH 7.5, 140 mM NaCl, 1 mM EDTA, 1% Triton X-100, 0.1% sodium deoxycholate.

In test [2] the target is T1, Yaf9-Myc (C. albicans). Description: condition: only hyphal state (YPD with 10% serum, 37 °C); co-IP; as a1, but cells in the hyphal state (YPD with 10% serum, 37 °C).

Take Swr1-HA (from UniProt Q59U81 1-1641): the binding result in the test with Yaf9-Myc (C. albicans) [1] was “binds”.

B1: Esa1-HA (protein, UniProt Q5A7Q2 1-541)
chain: MAVAEIKKEKGSSLSPEPSSPIQILSTEPDANTDIKQEKFTPKDILPGCKVHVSKDGEFRLAEILQEHIKKGRKVFYVHYQDFNKRLDEWIELDRIDFTRSLILPEIKADTKENKSKKKSKSKGQTKLSKNNTTANSTTGTPQPSDGQPIMGDDEMDLENLNVQGLKRPGEEFSREDEIKKLRTSGSMTQNHSEVARVRNLSTIILGEHIIEPWYFSPYPIELTEEDEIYICDFTLSYFGSKKQFERFRSKCSMKHPPGNEIYRDSKVSFWEIDGRKQRTWCRNLCLLSKLFLDHKTLYYDVDPFLFYIMTIKSDQGHHVVGYFSKEKESADGYNVACILTLPCYQKRGFGKLLIQFSYMLTKVERKVGSPEKPLSDLGLLSYRAYWTDTLVKLLVERNSPALFRKNNSQLEYDEAENGKDSSATPTPGPGSNASQSSILASAAASRSGLNSSPIFSNEITIEDISSITCMTTTDILHTLTTLQMLRYYKGQHIIVLTDQIMELYEKLVKKVKEKKKHELNPKLLHWTPPSFTANQLRFGW
With B1, the binding entry with Yaf9-Myc (C. albicans) [1] was “binds”; with Yaf9-Myc (C. albicans) [2], “no binding”.
